Laboratory results from publication doi:10.1101/2021.06.29.450327.

Sequences of proteins named here, by UniProt entry; tags and fusion partners are left off. A change or cut given only in a name is not applied to a line headed by its entry.
UniProt P28300: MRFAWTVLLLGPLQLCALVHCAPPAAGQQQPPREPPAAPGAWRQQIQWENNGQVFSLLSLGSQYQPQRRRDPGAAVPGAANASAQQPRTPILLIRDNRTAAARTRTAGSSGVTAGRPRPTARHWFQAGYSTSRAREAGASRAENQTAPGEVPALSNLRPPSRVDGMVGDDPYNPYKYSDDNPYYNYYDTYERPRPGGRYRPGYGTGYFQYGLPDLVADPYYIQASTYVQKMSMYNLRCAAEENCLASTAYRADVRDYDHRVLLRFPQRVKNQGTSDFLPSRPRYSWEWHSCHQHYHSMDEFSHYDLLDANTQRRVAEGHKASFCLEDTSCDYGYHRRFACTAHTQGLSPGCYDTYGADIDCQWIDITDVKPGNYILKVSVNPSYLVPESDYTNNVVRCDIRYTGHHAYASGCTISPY
UniProt P28301: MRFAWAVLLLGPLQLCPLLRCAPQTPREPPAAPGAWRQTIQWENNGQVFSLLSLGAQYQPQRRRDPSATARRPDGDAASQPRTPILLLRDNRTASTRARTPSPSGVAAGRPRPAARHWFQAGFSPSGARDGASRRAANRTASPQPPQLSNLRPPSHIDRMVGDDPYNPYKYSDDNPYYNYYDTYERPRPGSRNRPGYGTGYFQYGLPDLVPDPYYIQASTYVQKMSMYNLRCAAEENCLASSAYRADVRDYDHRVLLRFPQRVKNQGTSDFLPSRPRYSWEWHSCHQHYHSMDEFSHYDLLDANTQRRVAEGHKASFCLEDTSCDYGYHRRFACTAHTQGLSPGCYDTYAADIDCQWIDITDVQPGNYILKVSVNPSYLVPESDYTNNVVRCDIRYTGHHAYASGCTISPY

Key:
[1] = molecular target: T1, endogenous Meflin (human fibroblasts) (human (endogenous in fHDF/TERT166 and NHDF fibroblasts)) (UniProt O14498); experiment: co-IP
T1 sequence: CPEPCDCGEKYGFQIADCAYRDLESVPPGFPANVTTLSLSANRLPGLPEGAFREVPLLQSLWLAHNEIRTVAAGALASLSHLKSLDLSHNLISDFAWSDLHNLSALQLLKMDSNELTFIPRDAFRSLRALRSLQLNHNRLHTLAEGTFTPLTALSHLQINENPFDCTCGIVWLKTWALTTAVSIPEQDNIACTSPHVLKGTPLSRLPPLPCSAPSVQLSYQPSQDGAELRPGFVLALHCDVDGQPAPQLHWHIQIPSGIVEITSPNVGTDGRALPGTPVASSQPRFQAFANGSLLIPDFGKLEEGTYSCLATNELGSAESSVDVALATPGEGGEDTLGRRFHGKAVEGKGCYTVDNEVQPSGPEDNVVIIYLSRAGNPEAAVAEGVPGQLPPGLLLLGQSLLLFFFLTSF

[2] = molecular target: T2, HA-Meflin (mouse Meflin, mMeflin) (mouse) (UniProt Q6GU68); experiment: co-IP
T2 sequence: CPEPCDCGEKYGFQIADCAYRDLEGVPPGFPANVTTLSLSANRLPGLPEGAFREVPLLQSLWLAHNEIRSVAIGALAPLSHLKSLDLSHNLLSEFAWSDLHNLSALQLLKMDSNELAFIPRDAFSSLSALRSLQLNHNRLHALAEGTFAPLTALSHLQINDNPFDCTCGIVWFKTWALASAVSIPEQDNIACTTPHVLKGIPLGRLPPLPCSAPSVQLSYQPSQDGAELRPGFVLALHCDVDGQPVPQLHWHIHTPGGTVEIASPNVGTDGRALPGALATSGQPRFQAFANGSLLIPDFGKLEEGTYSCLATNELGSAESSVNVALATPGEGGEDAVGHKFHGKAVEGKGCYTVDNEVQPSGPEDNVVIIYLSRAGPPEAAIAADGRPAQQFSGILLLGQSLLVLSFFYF

Row | Substance | binding [1] | binding [2]
1 | endogenous Lox (human fibroblasts) (from UniProt P28300) (enzyme) | binds | 
2 | mouse Lox (mLox) (from UniProt P28301) (enzyme) |  | binds

No constants are given. Whether binding was seen depends on the method and setting. In cells and extracts the contact can be indirect. A result given as binding can be weak or reduced; the word gives no strength. For some assays here: Tags and fused reporters may be left off the sequences shown.
